{"source": "patent US8481679B2", "about": "“Immobilizing an entity in a desired orientation on a support material” (Arizona Board of Regents Acting on behalf of Arizona State …, priority 2007, dated 2013)", "test_system": "carbonic anhydrase", "experiment": "Corning Epic binding of dansylamide to carbonic anhydrase immobilized by attachment peptides", "conditions": "carbonic anhydrase immobilized at 1 μM concentration; after 30 and 150 minutes", "experimental": "Dansylamide, a known inhibitor of carbonic anhydrase, was applied to a range of concentrations (31 nM to 1 μM) of carbonic anhydrase immobilized in Epic wells by peptides CA4, CA8, CA9, CA10, CA11, and CA12. […] Wavelength shifts on the order of approximately 10 to 20 pm were observed upon application of the dansylamide to carbonic anhydrase immobilized at 1 μM concentration on peptides CA4, CA8, and CA11, confirming that the carbonic anhydrase was immobilized in an orientation that preserved the availability of the binding site (active site) and ability of the enzyme to consistently bind the inhibitor dansylamide, and confirming that the attachment peptides were able to immobilize carbonic anhydrase in the wells of an Epic plate in a manner such that binding of dansylamide to the carbonic anhydrase was readily detectable by the Epic technology.\nFor nearly all replicates, a shift on the order of 20 pm was observed upon application of the dansylamide.", "note": "Some entries share one result that the patent states for a list of compounds. Some compounds share one range, which may span the group rather than tell each member."}
{"substance": "CA4: 20-residue candidate attachment peptide for carbonic anhydrase, C-terminal glycine-serine-cysteine; sequence only in FIG. 6A (HWHHRWWHHWKHPHHWRGSC; CA4 (Carbonic Anhydrase Peptide 4))", "values": [{"measurement": "additional wavelength shift upon application of dansylamide", "value": "10 to 20", "unit": "pm"}]}
